Measured values published in PMC9234244.
No constants are given. Whether binding was seen depends on the method and setting. For part of these data: Binding seen in cells or lysates may run through a third protein. Some entries that bind do so weakly or less than the wild type. For part of these data: Tags and fused reporters may be left off the sequences shown. Each block holds one molecule with its values, some of them ahead of it.

Protein sequences, listed by entry. Tags and fused reporters are not part of them. Residues count along the entry.
UniProt O75581, residues 20-1613: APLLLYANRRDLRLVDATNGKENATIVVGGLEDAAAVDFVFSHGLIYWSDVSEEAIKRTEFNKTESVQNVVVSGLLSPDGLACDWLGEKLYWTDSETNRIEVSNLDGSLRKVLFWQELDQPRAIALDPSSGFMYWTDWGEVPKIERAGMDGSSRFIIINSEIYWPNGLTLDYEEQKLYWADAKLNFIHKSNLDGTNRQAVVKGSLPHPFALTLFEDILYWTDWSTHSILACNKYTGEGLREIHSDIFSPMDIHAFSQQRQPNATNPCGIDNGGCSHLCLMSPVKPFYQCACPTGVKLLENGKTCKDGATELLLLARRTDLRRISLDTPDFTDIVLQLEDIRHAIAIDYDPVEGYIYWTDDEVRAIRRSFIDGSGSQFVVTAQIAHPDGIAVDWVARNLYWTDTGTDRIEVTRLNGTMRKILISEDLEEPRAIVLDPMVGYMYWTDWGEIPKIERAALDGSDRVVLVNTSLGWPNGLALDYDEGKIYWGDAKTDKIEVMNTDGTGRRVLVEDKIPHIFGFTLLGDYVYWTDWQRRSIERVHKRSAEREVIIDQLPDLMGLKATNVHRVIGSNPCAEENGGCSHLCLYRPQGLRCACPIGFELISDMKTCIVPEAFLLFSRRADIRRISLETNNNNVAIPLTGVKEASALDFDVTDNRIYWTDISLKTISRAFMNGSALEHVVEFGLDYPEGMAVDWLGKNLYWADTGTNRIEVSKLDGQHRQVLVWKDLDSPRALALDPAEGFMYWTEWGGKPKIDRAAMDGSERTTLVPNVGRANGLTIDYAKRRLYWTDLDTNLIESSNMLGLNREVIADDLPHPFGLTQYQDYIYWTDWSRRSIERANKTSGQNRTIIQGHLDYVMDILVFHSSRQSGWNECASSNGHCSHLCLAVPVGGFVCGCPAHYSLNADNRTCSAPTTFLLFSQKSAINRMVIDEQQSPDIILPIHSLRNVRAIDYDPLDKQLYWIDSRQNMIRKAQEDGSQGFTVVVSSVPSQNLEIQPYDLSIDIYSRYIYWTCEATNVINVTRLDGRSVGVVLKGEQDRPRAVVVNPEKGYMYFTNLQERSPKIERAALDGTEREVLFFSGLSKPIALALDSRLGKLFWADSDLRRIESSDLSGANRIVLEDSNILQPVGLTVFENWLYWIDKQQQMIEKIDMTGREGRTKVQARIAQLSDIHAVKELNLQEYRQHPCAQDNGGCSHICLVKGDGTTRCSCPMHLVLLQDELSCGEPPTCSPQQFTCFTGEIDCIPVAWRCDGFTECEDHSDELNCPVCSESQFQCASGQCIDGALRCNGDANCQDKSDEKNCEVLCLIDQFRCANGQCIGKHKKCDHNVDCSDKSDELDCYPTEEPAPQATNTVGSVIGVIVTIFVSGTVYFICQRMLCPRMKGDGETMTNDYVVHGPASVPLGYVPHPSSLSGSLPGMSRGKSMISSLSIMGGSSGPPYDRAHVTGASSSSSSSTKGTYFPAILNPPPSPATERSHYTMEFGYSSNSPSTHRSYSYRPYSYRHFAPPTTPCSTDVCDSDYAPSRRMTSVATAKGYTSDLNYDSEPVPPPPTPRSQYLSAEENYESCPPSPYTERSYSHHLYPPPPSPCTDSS
UniProt P27467, residues 19-352: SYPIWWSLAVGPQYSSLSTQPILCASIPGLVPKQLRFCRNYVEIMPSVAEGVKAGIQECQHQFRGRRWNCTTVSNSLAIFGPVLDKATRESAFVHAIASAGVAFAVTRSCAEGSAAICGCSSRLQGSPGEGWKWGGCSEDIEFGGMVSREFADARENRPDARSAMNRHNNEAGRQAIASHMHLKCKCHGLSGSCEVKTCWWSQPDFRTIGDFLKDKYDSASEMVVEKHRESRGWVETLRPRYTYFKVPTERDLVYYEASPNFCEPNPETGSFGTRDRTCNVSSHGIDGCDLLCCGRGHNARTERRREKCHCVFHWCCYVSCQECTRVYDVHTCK

Tests used:
[1] = molecular target: T1, SNAP-tagged FZD4 (SNAP-FZD4) (UniProt Q61088); experiment: pull-down; HEK293T cells expressing SNAP-FZD4 and MESD incubated 3 h with Wnt3a conditioned medium with or without FSTL1-HA conditioned medium; surface SNAP-FZD4 labelled with 1 μM BG-PEG12-Biotin 15 min at room temperature; lysates on streptavidin–agarose 6 h; blot for WNT3a and SNAP-FZD4
T1 sequence (chain, BG-PEG12-Biotin on the SNAP tag (cell surface labelling experiment only)): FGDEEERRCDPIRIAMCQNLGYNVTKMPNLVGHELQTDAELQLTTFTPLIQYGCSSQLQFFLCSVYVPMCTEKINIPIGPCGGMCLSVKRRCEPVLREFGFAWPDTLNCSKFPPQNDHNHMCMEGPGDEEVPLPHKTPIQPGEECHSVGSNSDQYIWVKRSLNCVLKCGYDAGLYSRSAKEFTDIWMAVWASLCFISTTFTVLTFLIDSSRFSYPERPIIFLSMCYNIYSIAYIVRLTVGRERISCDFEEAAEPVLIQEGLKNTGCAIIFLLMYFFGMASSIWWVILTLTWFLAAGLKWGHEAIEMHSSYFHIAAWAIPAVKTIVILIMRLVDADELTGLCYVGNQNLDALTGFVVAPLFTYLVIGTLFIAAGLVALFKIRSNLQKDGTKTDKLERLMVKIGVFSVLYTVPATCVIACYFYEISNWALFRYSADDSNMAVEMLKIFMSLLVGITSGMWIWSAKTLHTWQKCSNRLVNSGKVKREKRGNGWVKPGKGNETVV

[2] = molecular target: T2, Recombinant FSTL1 protein (mFSTL1) (mouse) (UniProt Q62356); experiment: co-IP; recombinant Wnt3a (1.5 μg) with or without recombinant FSTL1 (3 μg) in 300 μl Tris-buffered saline/0.1% Triton X-100 overnight at 4 °C; anti-FSTL1 antibodies, then Protein G agarose blocked with 1% BSA; both purified
T2 sequence: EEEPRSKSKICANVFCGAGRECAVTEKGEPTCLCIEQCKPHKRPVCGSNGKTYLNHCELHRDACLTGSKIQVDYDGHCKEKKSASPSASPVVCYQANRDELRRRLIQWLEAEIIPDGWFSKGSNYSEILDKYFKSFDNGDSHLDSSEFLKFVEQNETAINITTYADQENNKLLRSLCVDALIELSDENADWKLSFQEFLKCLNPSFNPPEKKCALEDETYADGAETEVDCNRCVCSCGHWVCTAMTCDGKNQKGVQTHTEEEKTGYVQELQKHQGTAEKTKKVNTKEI

[3] = molecular target: T3, FSTL1-HA (follistatin-like 1, HA-tagged) (UniProt Q62356); experiment: co-IP; conditioned medium of co-transfected HEK293T cells immunoprecipitated with anti-HA or anti-V5; Western blotting
T3 sequence: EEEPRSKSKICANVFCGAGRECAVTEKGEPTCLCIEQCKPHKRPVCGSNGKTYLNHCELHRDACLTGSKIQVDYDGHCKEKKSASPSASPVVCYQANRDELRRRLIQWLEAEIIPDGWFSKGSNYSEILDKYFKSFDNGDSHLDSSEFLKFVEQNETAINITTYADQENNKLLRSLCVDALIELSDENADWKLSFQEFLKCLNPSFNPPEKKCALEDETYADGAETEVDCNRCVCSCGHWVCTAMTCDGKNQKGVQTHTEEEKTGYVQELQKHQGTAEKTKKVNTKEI

[4] = molecular target: T3, FSTL1-HA (follistatin-like 1, HA-tagged); experiment: co-IP; HEK293T cells co-transfected; whole cell lysates incubated with the antibody at 4 °C overnight, then protein G or protein A beads 6 h at 4 °C; Western blotting
[5] = molecular target: LRP6 (low-density lipoprotein receptor–related protein 6) (UniProt O75581); experiment: co-IP; HEK293T cells co-transfected with FSTL1-HA, FZD4 and LRP6 plasmids; lysates immunoprecipitated with anti-LRP6
[6] = molecular target: T4, WNT1, endogenous in mouse kidney with UUO (mouse (endogenous in UUO kidney)) (UniProt P04426); experiment: co-IP; endogenous proteins; whole lysates of mouse kidneys with UUO for 7 days, preabsorbed with protein G beads, incubated with rabbit anti-Wnt1 and rabbit anti-WNT3a together (or normal rabbit IgG) at 4 °C overnight, Protein A beads; blot with anti-FSTL1
T4 sequence: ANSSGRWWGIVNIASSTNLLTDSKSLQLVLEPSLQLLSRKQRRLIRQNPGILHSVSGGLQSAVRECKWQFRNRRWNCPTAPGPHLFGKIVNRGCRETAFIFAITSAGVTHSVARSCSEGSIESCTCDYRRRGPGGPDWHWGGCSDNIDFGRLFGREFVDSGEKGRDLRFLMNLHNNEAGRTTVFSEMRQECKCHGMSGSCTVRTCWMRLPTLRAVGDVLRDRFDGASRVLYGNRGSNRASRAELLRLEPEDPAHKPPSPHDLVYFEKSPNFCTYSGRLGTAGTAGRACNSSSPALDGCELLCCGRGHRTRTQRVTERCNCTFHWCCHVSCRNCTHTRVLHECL

[7] = molecular target: WNT3a, endogenous in mouse kidney with UUO (mouse (endogenous in UUO kidney)) (UniProt P27467); experiment: as above
[8] = molecular target: T1, SNAP-tagged FZD4 (SNAP-FZD4); experiment: co-IP; HEK293T cells co-transfected; whole cell lysates incubated with the antibody at 4 °C overnight, then protein G or protein A beads 6 h at 4 °C; Western blotting

binding [1]: binds
Molecule: Wnt3a in conditioned medium (Wnt3a CM) (from UniProt P27467 19-352) (ligand)

binding [2]: binds
Molecule: Recombinant WNT3a protein (from UniProt P27467 19-352) (ligand)

binding [3]: binds
B1: Wnt2-V5 (ligand, UniProt P09544 26-360)
chain: SWWYMRATGGSSRVMCDNVPGLVSSQRQLCHRHPDVMRAISQGVAEWTAECQHQFRQHRWNCNTLDRDHSLFGRVLLRSSRESAFVYAISSAGVVFAITRACSQGEVKSCSCDPKKMGSAKDSKGIFDWGGCSDNIDYGIKFARAFVDAKERKGKDARALMNLHNNRAGRKAVKRFLKQECKCHGVSGSCTLRTCWLAMADFRKTGDYLWRKYNGAIQVVMNQDGTGFTVANERFKKPTKNDLVYFENSPDYCIRDREAGSLGTAGRVCNLTSRGMDSCEVMCCGRGYDTSHVTRMTKCGCKFHWCCAVRCQDCLEALDVHTCKAPKNADWTTAT

binding [4]: binds
B2: Wnt1 (ligand, UniProt P04426 28-370)
chain: ANSSGRWWGIVNIASSTNLLTDSKSLQLVLEPSLQLLSRKQRRLIRQNPGILHSVSGGLQSAVRECKWQFRNRRWNCPTAPGPHLFGKIVNRGCRETAFIFAITSAGVTHSVARSCSEGSIESCTCDYRRRGPGGPDWHWGGCSDNIDFGRLFGREFVDSGEKGRDLRFLMNLHNNEAGRTTVFSEMRQECKCHGMSGSCTVRTCWMRLPTLRAVGDVLRDRFDGASRVLYGNRGSNRASRAELLRLEPEDPAHKPPSPHDLVYFEKSPNFCTYSGRLGTAGTAGRACNSSSPALDGCELLCCGRGHRTRTQRVTERCNCTFHWCCHVSCRNCTHTRVLHECL

binding [4]: binds | binding [5]: binds
B3: FZD4 (Frizzled-4) (receptor, UniProt Q61088 37-537)
chain: FGDEEERRCDPIRIAMCQNLGYNVTKMPNLVGHELQTDAELQLTTFTPLIQYGCSSQLQFFLCSVYVPMCTEKINIPIGPCGGMCLSVKRRCEPVLREFGFAWPDTLNCSKFPPQNDHNHMCMEGPGDEEVPLPHKTPIQPGEECHSVGSNSDQYIWVKRSLNCVLKCGYDAGLYSRSAKEFTDIWMAVWASLCFISTTFTVLTFLIDSSRFSYPERPIIFLSMCYNIYSIAYIVRLTVGRERISCDFEEAAEPVLIQEGLKNTGCAIIFLLMYFFGMASSIWWVILTLTWFLAAGLKWGHEAIEMHSSYFHIAAWAIPAVKTIVILIMRLVDADELTGLCYVGNQNLDALTGFVVAPLFTYLVIGTLFIAAGLVALFKIRSNLQKDGTKTDKLERLMVKIGVFSVLYTVPATCVIACYFYEISNWALFRYSADDSNMAVEMLKIFMSLLVGITSGMWIWSAKTLHTWQKCSNRLVNSGKVKREKRGNGWVKPGKGNETVV

binding [6]: binds | binding [7]: binds
B4: FSTL1, endogenous in mouse kidney with UUO (protein, UniProt Q62356 19-306)
chain: EEEPRSKSKICANVFCGAGRECAVTEKGEPTCLCIEQCKPHKRPVCGSNGKTYLNHCELHRDACLTGSKIQVDYDGHCKEKKSASPSASPVVCYQANRDELRRRLIQWLEAEIIPDGWFSKGSNYSEILDKYFKSFDNGDSHLDSSEFLKFVEQNETAINITTYADQENNKLLRSLCVDALIELSDENADWKLSFQEFLKCLNPSFNPPEKKCALEDETYADGAETEVDCNRCVCSCGHWVCTAMTCDGKNQKGVQTHTEEEKTGYVQELQKHQGTAEKTKKVNTKEI

binding [8]: binds
B5: FSTL1 that does not have a tag (full-length, FL) (protein, UniProt Q62356 19-306)
chain: EEEPRSKSKICANVFCGAGRECAVTEKGEPTCLCIEQCKPHKRPVCGSNGKTYLNHCELHRDACLTGSKIQVDYDGHCKEKKSASPSASPVVCYQANRDELRRRLIQWLEAEIIPDGWFSKGSNYSEILDKYFKSFDNGDSHLDSSEFLKFVEQNETAINITTYADQENNKLLRSLCVDALIELSDENADWKLSFQEFLKCLNPSFNPPEKKCALEDETYADGAETEVDCNRCVCSCGHWVCTAMTCDGKNQKGVQTHTEEEKTGYVQELQKHQGTAEKTKKVNTKEI
